Experimental data as given in the supplement of paper PMC10849652.
This is one part of the list.

The chains behind the UniProt entries cited, without tags or fusion partners. Where a name states a change or a piece, a line headed by the entry shows the natural chain unless it says otherwise.
UniProt Q9Y221: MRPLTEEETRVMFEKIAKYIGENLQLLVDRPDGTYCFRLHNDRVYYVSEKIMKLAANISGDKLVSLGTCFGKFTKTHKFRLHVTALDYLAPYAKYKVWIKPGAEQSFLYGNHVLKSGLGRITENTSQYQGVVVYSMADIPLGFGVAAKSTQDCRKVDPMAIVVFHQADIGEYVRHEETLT
UniProt Q8N183: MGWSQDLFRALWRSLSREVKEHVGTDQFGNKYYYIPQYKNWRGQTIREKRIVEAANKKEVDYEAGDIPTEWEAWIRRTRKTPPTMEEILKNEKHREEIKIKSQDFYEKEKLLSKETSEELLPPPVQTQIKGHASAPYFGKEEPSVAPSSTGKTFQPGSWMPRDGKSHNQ
UniProt Q9P0J0, whole entry, looked up: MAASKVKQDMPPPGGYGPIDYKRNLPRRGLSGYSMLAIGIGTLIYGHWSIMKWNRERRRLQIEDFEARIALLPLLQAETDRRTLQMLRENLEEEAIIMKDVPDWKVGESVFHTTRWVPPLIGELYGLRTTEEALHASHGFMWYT
UniProt Q9NVZ3: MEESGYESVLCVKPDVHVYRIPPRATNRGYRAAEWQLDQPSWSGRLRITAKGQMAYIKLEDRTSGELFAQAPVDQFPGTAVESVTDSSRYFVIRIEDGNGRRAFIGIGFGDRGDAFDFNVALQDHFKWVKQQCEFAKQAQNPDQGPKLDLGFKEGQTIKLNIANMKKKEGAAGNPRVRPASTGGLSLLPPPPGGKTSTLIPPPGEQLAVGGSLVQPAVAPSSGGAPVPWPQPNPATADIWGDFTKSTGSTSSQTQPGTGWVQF
UniProt Q9Y2I1: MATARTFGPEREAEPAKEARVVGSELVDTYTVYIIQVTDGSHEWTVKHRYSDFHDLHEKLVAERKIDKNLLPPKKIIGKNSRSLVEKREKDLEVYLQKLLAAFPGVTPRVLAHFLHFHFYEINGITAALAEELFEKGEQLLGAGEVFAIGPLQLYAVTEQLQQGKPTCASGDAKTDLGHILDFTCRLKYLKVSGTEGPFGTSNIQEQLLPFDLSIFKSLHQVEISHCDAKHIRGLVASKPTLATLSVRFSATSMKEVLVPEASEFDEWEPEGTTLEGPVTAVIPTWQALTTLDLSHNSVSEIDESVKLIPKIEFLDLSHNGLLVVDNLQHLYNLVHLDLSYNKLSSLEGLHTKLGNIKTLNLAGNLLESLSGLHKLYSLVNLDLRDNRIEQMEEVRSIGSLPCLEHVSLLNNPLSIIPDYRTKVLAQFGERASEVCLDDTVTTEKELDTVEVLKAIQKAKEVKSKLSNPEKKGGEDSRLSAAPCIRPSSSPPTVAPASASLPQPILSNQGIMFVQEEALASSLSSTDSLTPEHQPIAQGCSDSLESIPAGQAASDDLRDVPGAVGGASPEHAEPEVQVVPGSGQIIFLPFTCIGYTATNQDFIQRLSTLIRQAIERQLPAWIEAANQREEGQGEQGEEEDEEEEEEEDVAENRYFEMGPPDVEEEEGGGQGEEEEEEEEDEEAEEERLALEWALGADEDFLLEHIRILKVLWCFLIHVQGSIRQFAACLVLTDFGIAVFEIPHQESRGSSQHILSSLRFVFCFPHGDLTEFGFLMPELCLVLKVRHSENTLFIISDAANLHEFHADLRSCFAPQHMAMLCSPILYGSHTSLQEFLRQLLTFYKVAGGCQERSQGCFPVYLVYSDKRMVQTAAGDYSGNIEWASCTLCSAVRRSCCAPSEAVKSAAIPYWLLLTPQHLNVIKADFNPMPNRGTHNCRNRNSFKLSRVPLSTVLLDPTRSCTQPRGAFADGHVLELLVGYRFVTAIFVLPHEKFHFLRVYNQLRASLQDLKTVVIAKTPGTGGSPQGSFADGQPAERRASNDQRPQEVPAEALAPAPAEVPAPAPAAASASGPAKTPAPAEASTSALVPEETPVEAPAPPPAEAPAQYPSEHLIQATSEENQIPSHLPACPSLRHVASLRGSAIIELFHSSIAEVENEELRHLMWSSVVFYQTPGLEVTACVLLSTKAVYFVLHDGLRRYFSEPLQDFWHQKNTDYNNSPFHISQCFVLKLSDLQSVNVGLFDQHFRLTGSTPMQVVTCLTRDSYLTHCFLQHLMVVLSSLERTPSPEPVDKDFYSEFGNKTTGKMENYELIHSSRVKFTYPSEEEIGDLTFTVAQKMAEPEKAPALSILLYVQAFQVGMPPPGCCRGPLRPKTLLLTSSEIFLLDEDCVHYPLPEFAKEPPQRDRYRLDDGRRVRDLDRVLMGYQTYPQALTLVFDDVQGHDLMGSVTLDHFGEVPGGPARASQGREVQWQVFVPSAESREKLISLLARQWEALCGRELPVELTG
UniProt Q7L592: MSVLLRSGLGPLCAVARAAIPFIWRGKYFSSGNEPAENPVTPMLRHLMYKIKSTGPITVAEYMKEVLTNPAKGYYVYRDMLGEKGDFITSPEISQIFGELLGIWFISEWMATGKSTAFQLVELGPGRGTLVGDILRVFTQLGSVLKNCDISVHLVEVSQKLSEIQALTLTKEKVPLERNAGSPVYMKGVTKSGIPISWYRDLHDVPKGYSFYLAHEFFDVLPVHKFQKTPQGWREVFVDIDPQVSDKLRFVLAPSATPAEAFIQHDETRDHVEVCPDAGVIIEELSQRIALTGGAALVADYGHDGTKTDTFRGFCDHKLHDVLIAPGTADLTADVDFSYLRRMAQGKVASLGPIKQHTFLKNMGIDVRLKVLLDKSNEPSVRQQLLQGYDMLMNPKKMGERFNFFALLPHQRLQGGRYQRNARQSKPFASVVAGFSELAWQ
UniProt O95299, whole entry, looked up: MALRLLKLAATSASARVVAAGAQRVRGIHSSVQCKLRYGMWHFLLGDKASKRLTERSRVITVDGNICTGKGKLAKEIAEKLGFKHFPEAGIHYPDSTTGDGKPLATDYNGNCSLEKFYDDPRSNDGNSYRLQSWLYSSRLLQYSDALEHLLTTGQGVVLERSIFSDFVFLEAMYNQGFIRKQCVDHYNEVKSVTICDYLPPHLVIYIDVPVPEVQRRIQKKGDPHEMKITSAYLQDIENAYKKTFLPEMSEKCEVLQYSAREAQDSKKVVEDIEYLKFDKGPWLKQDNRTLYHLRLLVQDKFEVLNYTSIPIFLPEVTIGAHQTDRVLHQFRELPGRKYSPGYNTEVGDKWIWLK
UniProt Q9GZT8: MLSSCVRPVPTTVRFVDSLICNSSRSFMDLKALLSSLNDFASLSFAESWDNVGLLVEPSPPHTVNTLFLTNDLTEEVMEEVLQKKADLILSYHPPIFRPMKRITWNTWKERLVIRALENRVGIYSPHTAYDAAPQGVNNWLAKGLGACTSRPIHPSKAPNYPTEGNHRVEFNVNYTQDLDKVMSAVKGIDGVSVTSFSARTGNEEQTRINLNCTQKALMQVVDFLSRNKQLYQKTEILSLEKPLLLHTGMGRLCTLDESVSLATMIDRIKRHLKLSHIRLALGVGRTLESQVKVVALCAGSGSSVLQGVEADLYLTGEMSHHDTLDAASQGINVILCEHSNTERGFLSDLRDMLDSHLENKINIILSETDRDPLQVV
UniProt Q9Y6M9, whole entry, looked up: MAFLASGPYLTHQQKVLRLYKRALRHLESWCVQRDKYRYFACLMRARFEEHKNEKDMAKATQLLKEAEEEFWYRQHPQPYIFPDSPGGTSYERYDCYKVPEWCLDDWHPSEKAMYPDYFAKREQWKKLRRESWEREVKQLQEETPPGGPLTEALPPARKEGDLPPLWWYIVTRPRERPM
UniProt P56181: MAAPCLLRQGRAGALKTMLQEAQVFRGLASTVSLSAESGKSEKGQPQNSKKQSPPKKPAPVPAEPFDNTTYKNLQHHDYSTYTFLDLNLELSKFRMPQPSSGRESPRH
UniProt P49821, whole entry, looked up: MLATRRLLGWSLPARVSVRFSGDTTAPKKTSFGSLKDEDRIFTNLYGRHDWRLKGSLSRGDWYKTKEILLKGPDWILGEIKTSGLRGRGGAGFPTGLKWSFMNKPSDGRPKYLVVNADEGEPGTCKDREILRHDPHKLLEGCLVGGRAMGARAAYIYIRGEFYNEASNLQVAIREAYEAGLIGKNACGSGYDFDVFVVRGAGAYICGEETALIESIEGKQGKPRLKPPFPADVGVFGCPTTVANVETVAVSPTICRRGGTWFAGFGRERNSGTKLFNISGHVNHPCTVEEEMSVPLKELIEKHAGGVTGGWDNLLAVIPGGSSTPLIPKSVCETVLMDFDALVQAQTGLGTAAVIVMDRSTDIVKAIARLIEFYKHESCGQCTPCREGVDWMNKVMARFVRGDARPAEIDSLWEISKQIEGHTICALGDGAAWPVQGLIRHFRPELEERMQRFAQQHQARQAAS
UniProt P51970, whole entry, looked up: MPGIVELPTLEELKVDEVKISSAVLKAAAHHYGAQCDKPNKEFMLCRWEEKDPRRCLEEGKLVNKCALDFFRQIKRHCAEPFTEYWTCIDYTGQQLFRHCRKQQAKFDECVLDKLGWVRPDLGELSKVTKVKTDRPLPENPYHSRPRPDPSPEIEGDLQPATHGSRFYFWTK
UniProt O15226: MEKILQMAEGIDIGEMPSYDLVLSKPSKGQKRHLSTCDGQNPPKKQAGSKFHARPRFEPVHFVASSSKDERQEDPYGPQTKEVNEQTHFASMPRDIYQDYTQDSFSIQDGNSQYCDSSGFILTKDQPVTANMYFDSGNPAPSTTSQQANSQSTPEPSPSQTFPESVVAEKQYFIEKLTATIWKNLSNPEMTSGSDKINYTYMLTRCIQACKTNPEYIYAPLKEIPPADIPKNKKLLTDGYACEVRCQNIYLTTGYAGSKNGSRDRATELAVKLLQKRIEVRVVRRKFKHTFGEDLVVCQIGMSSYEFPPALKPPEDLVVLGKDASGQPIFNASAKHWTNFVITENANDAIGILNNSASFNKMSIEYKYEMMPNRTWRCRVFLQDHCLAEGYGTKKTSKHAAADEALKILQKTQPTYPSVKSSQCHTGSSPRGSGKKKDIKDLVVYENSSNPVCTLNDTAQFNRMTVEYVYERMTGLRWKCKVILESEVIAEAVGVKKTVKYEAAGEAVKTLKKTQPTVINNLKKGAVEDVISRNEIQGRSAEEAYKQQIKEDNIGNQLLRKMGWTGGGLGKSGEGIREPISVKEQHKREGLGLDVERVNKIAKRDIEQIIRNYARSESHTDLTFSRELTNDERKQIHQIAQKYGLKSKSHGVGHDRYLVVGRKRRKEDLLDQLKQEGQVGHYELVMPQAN
UniProt P56556, whole entry, looked up: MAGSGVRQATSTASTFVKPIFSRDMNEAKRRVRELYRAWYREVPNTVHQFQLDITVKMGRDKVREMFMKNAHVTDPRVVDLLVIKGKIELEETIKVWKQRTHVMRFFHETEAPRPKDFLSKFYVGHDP
UniProt Q9BYG3: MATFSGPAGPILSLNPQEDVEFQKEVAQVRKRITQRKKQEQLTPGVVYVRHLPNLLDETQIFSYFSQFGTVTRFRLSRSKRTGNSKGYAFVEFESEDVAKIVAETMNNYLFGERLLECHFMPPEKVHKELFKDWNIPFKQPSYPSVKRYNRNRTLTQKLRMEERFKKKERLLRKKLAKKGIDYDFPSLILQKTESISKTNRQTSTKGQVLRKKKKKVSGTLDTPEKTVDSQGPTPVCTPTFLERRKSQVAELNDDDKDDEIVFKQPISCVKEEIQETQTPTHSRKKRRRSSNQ
UniProt Q9Y697: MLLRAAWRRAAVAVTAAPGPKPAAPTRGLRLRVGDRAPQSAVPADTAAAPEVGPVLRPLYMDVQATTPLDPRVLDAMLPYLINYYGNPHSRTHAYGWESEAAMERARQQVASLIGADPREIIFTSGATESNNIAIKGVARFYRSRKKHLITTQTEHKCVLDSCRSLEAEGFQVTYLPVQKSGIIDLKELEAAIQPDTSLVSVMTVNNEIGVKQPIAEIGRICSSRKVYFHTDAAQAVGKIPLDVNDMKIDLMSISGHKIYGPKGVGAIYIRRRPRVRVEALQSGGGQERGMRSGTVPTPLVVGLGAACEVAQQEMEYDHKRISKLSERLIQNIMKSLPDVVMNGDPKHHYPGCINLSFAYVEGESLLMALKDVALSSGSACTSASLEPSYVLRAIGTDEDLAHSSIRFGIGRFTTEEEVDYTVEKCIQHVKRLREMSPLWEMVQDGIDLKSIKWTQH
UniProt Q8N8Q9: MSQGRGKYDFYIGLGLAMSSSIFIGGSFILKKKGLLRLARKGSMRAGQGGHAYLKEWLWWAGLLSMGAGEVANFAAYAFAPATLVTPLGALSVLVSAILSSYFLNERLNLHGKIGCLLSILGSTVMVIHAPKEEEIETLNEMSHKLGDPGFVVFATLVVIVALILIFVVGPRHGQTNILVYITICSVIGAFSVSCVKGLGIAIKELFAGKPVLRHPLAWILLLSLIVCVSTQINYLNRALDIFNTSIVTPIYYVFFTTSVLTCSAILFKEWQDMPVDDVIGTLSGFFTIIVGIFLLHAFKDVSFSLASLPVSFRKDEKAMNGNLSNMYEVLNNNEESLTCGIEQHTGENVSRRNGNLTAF
UniProt Q8NC96: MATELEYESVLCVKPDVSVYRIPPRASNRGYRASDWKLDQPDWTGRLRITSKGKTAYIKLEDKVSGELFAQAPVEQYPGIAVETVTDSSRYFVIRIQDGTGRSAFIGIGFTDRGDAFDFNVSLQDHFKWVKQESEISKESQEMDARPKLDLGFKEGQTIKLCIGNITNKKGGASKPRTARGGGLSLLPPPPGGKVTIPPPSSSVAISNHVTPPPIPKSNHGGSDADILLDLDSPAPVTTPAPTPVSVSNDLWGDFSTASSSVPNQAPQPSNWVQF

Key:
Assay in all cases: log2 fold change, soluble protein after heating vs DMSO (PISA); higher = thermal stabilisation; K562 lysate, 10 uM; active = over 0.2 and 3.5 SD of the protein, either way, in both replicates (recomputed)
alvocidib = compound: CN1CC[C@H](c2c(O)cc(O)c3c(=O)cc(-c4ccccc4Cl)oc23)[C@H](O)C1 [alvocidib]
Outline: (§1)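 The values are log-two fold changes in thermal stability compared with solvent controls and come from duplicates. They were obtained by TMTpro 16plex LC-MS/MS, with channel sums equalised, on the supernatant after 21,000xg for 90 min. That supernatant came from crude K562 extract at 1 mg/mL protein treated with 10 μM compound for 30 min, heated for 3 min across 48°C-58°C, pooled and brought to 0.5% NP-40 at 4°C.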

Tubastatin A = compound: CN1CCc2c(c3ccccc3n2Cc2ccc(C(=O)NO)cc2)C1 [Tubastatin A]
Outline: as §1

[1] = compound: CNC(=O)C1=CC=CC=C1NC2=NC(=NC=C2Cl)NC3=C(C=C(C=C3)N4CCOCC4)OC
Outline: as §1

defactinib = compound: CNC(=O)c1ccc(Nc2ncc(C(F)(F)F)c(NCc3nccnc3N(C)S(C)(=O)=O)n2)cc1 [defactinib]
Outline: as §1

[2] = compound: CNc1nc(-c2ccc3c(N)n[nH]c3c2)cc(N2C[C@@H](C(=O)NC3CCCCC3)CC[C@H]2C)n1
Outline: as §1

encorafenib = compound: COC(=O)N[C@@H](C)CNc1nccc(-c2cn(C(C)C)nc2-c2cc(Cl)cc(NS(C)(=O)=O)c2F)n1 [encorafenib]
Outline: as §1

[3] = compound: COC(=O)[C@H](CCSC)NC(=O)C1=C(C=C(C=C1)NC[C@H](CS)N)C2=CC=CC=C2
Outline: as §1

alisertib = compound: COc1cc(Nc2ncc3c(n2)-c2ccc(Cl)cc2C(c2c(F)cccc2OC)=NC3)ccc1C(=O)O [alisertib]
Outline: as §1

[4] = compound: COc1cc2nc(-c3cc(F)ccc3O)nc(N[C@@H]3CNC[C@H]3C(C)(C)O)c2cc1OC
Outline: as §1

gefitinib = compound: COc1cc2ncnc(Nc3ccc(F)c(Cl)c3)c2cc1OCCCN1CCOCC1 [gefitinib]
Outline: as §1

Measured: log2 fold change

NELFE (UniProt P18615)
inactive: alvocidib -0.062 | Tubastatin A 0.034 | [1] -0.008 | defactinib 0.013 | [2] -0.007 | encorafenib 0.015 | [3] -0.031 | alisertib 0.034 | [4] -0.013 | gefitinib -0.044

NFXL1 (UniProt Q6ZNB6)
inactive: alvocidib -0.086 | Tubastatin A 0.009 | [1] -0.038 | defactinib 0.042 | [2] 0.066 | encorafenib 0.013 | [3] -0.081 | alisertib 0.023 | [4] -0.01 | gefitinib -0.124

NIP7 (UniProt Q9Y221)
inactive: alvocidib -0.007 | Tubastatin A -0.002 | [1] 0.048 | defactinib -0.015 | [2] -0.02 | encorafenib 0.044 | [3] -0.058 | alisertib 0.017 | [4] -0.01 | gefitinib -0.037

NDUFAF2 (UniProt Q8N183)
inactive: alvocidib -0.061 | Tubastatin A -0.058 | [1] 0.018 | defactinib -0.005 | [2] 0.087 | encorafenib -0.002 | [3] -0.006 | alisertib 0.01 | [4] -0.014 | gefitinib 0.017

NFKBIB (UniProt Q15653)
inactive: alvocidib -0.146 | Tubastatin A -0.077 | [1] 0.053 | defactinib -0.007 | [2] -0.006 | encorafenib 0.006 | [3] 0.06 | alisertib 0 | [4] -0.031 | gefitinib 0.064

NDUFA13 (UniProt Q9P0J0)
inactive: alvocidib 0.019 | Tubastatin A 0.002 | [1] -0.003 | defactinib -0.01 | [2] 0.062 | encorafenib -0.018 | [3] 0.015 | alisertib 0.006 | [4] -0.002 | gefitinib -0.032

NELFA (UniProt Q9H3P2)
inactive: alvocidib 0.036 | Tubastatin A -0.139 | [1] 0.022 | defactinib 0.056 | [2] 0.051 | encorafenib 0 | [3] 0.025 | alisertib 0.006 | [4] -0.006 | gefitinib -0.015

NECAP2 (UniProt Q9NVZ3)
inactive: alvocidib 0.002 | Tubastatin A 0.039 | [1] -0.012 | defactinib -0.023 | [2] 0.012 | encorafenib 0.031 | [3] -0.02 | alisertib -0.012 | [4] 0.006 | gefitinib -0.056

NISCH (UniProt Q9Y2I1)
inactive: alvocidib 0.018 | Tubastatin A -0.044 | [1] 0.032 | defactinib 0.025 | [2] 0.005 | encorafenib 0.022 | [3] 0.016 | alisertib 0.019 | [4] -0.001 | gefitinib 0.01

NIPSNAP2 (UniProt O75323)
inactive: alvocidib 0.027 | Tubastatin A -0.015 | [1] 0.044 | defactinib 0.048 | [2] 0.077 | encorafenib -0.02 | [3] 0.163 | alisertib 0.04 | [4] -0.073 | gefitinib -0.044

NDUFAF7 (UniProt Q7L592)
inactive: alvocidib 0.025 | Tubastatin A -0.094 | [1] 0.028 | defactinib 0.048 | [2] 0.011 | encorafenib 0.025 | [3] -0.062 | alisertib -0.014 | [4] 0.012 | gefitinib 0.02

NDUFA10 (UniProt O95299)
inactive: alvocidib 0.048 | Tubastatin A -0.028 | [1] -0.044 | defactinib 0.029 | [2] -0.043 | encorafenib -0.011 | [3] 0.112 | alisertib 0.105 | [4] 0.124 | gefitinib -0.041

NIF3L1 (UniProt Q9GZT8)
inactive: alvocidib -0.056 | Tubastatin A 0.047 | [1] 0.005 | defactinib 0.021 | [2] 0.062 | encorafenib 0.008 | [3] -0.034 | alisertib -0.048 | [4] 0.012 | gefitinib 0.055

NDUFB9 (UniProt Q9Y6M9)
inactive: alvocidib 0.069 | Tubastatin A 0.039 | [1] 0.004 | defactinib -0.018 | [2] -0.01 | encorafenib -0.006 | [3] 0.02 | alisertib -0.042 | [4] -0.049 | gefitinib -0.011

NEO1 (UniProt Q92859)
inactive: alvocidib -0.192

NIT2 (UniProt Q9NQR4)
inactive: alvocidib 0.046 | Tubastatin A 0.047 | [1] -0.003 | defactinib -0.05 | [2] 0.013 | encorafenib -0.032 | [3] 0.082 | alisertib 0.012 | [4] 0.019 | gefitinib -0.017

NEU1 (UniProt Q99519)
inactive: alvocidib -0.022 | Tubastatin A 0.015 | [1] 0.019 | defactinib 0.047 | [2] -0.074 | encorafenib 0.041 | [3] 0.018 | alisertib -0.1 | [4] 0.006 | gefitinib -0.016

NF2 (UniProt P35240)
inactive: alvocidib -0.03 | Tubastatin A 0.042 | [1] 0.02 | defactinib 0.047 | [2] 0.029 | encorafenib -0.054 | [3] -0.025 | alisertib 0.004 | [4] 0.037 | gefitinib -0.002

6 neighbouring records from above:
NIPSNAP2 (UniProt O75323)
inactive: alvocidib 0.027 | Tubastatin A -0.015 | [1] 0.044 | defactinib 0.048 | [2] 0.077 | encorafenib -0.02 | [3] 0.163 | alisertib 0.04 | [4] -0.073 | gefitinib -0.044

NDUFAF7 (UniProt Q7L592)
inactive: alvocidib 0.025 | Tubastatin A -0.094 | [1] 0.028 | defactinib 0.048 | [2] 0.011 | encorafenib 0.025 | [3] -0.062 | alisertib -0.014 | [4] 0.012 | gefitinib 0.02

NDUFA10 (UniProt O95299)
inactive: alvocidib 0.048 | Tubastatin A -0.028 | [1] -0.044 | defactinib 0.029 | [2] -0.043 | encorafenib -0.011 | [3] 0.112 | alisertib 0.105 | [4] 0.124 | gefitinib -0.041

NIF3L1 (UniProt Q9GZT8)
inactive: alvocidib -0.056 | Tubastatin A 0.047 | [1] 0.005 | defactinib 0.021 | [2] 0.062 | encorafenib 0.008 | [3] -0.034 | alisertib -0.048 | [4] 0.012 | gefitinib 0.055

NDUFB9 (UniProt Q9Y6M9)
inactive: alvocidib 0.069 | Tubastatin A 0.039 | [1] 0.004 | defactinib -0.018 | [2] -0.01 | encorafenib -0.006 | [3] 0.02 | alisertib -0.042 | [4] -0.049 | gefitinib -0.011

NEO1 (UniProt Q92859)
inactive: alvocidib -0.192

Remaining list, next part.

NDUFV3 isoform 2 (UniProt P56181)
inactive: alvocidib -0.026 | Tubastatin A 0.043 | [1] -0.008 | defactinib -0.01 | [2] 0.026 | encorafenib -0.005 | [3] -0.045 | alisertib -0.002 | [4] 0.023 | gefitinib -0.007

NDUFV1 (UniProt P49821)
inactive: alvocidib 0.022 | Tubastatin A 0.029 | [1] -0.017 | defactinib -0.019 | [2] 0.016 | encorafenib -0.026 | [3] 0.025 | alisertib 0.016 | [4] -0.021 | gefitinib -0.024

NKAP (UniProt Q8N5F7)
inactive: alvocidib -0.074 | Tubastatin A -0.1 | [1] -0.208 | defactinib -0.164 | [2] 0.122 | encorafenib 0.154 | [3] -0.046 | alisertib -0.019 | [4] 0.149 | gefitinib 0.023

NDUFA8 (UniProt P51970)
inactive: alvocidib 0.017 | Tubastatin A 0.04 | [1] 0 | defactinib -0.013 | [2] -0.005 | encorafenib -0.077 | [3] -0.142 | alisertib -0.018 | [4] -0.046 | gefitinib 0.166

NEK1 isoform 3 (UniProt Q96PY6)
inactive: alvocidib 0.002 | Tubastatin A -0.078 | [1] -0.018 | defactinib 0.014 | [2] -0.003 | encorafenib -0.005 | [3] 0.038 | alisertib -0.052 | [4] -0.078 | gefitinib -0.044

NKRF isoform 2 (UniProt O15226)
inactive: alvocidib 0 | Tubastatin A -0.095 | [1] -0.025 | defactinib -0.071 | [2] 0.103 | encorafenib 0.027 | [3] -0.01 | alisertib -0.038 | [4] -0.043 | gefitinib -0.034

NDUFA7 (UniProt M0R0N0)
inactive: alvocidib -0.498

NKIRAS2 (UniProt Q9NYR9)
inactive: alvocidib -0.192 | Tubastatin A 0.113 | [1] -0.056 | defactinib 0.009 | [2] 0.145 | encorafenib 0.024 | [3] 0.046 | alisertib 0.062 | [4] -0.043 | gefitinib 0.074

NDUFA6 (UniProt P56556)
inactive: alvocidib 0.054 | Tubastatin A 0.15 | [1] -0.072 | defactinib -0.046 | [2] 0.001 | encorafenib -0.011 | [3] 0.063 | alisertib 0.019 | [4] -0.008 | gefitinib -0.081

NIFK (UniProt Q9BYG3)
inactive: alvocidib 0.009 | Tubastatin A -0.023 | [1] -0.023 | defactinib 0 | [2] 0.095 | encorafenib 0.039 | [3] -0.003 | alisertib -0.073 | [4] -0.014 | gefitinib 0.01

NFS1 (UniProt Q9Y697)
inactive: alvocidib -0.032 | Tubastatin A 0.036 | [1] 0.011 | defactinib -0.008 | [2] 0.003 | encorafenib -0.028 | [3] -0.022 | alisertib 0.033 | [4] 0.009 | gefitinib -0.011

NIPA2 (UniProt Q8N8Q9)
inactive: alvocidib -0.187 | Tubastatin A -0.021 | [1] -0.112 | defactinib -0.043 | [2] 0.074 | encorafenib -0.228 | [3] 0.336 | alisertib 0.012 | [4] 0.005 | gefitinib 0.057

NECAP1 (UniProt Q8NC96)
inactive: alvocidib -0.023 | Tubastatin A 0.067 | [1] 0.045 | defactinib -0.009 | [2] -0.016 | encorafenib 0.025 | [3] -0.014 | alisertib 0.036 | [4] -0.012 | gefitinib 0.005
